Results are given in words; binding and its absence hold for the method and conditions named. In cells and extracts the contact can be indirect. Some results given as binding are weak or reduced against the parent protein; the word gives no strength.
Target: inositol-requiring enzyme-1 alpha (IRE1α) (UniProt O75460)
Test: co-IP; immunoprecipitation in 293 T cells; IgG as negative control; which protein was precipitated is not told

Chains of the proteins cited; added tags and fusions are not shown. Residues count along the entry.
UniProt O75460, residues 19-977: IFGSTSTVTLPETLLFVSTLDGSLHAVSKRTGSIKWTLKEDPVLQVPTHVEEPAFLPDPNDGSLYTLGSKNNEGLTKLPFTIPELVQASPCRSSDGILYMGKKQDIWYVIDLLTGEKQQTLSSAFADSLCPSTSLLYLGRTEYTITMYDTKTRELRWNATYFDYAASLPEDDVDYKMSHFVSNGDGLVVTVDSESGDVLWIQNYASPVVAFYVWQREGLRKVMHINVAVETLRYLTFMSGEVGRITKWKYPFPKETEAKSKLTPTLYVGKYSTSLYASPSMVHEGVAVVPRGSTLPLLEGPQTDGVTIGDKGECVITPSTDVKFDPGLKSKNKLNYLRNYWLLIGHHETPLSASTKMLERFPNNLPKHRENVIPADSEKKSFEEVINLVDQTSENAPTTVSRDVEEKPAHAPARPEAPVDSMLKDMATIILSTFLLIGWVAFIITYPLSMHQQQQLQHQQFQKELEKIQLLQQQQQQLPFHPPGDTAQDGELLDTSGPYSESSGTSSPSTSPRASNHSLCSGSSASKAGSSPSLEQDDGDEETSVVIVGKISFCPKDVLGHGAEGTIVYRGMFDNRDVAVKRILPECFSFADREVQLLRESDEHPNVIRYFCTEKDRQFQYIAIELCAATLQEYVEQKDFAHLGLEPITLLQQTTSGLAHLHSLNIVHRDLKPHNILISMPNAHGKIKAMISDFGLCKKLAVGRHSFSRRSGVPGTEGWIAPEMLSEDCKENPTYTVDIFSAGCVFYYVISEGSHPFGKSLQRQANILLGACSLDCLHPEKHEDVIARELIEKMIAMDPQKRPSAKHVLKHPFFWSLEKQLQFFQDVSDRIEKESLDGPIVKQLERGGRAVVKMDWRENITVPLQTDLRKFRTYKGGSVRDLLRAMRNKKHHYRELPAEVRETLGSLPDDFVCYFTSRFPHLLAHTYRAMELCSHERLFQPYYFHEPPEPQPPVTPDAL

binding: binds
B1: mesencephalic astrocyte-derived neurotrophic factor (MANF) (protein, UniProt P55145 25-182)
chain: LRPGDCEVCISYLGRFYQDLKDRDVTFSPATIENELIKFCREARGKENRLCYYIGATDDAATKIINEVSKPLAHHIPVEKICEKLKKKDSQICELKYDKQIDLSTVDLKKLRVKELKKILDDWGETCKGCAEKSDYIRKINELMPKYAPKAASARTDL

From article PMC12222710
